# Earlier results as cited in patent US9623049B2, “Immunotherapy using redirected allogeneic cells” (YEDA RESEARCH AND DEVELOPMENT CO. LTD., priority 2010, dated 2017).
# At least one read-out could not be matched to a standard name with certainty.
# Conditions: cited from earlier work
structure (smiles),measurement,value
"FC(F)(F)c1cccc(-c2noc(-c3cc(-c4ccccc4)c(C(F)(F)F)s3)n2)c1 [SEW2871, 5-[4-Phenyl-5-(trifluoromethyl)thiophen-2-yl]-3-[3-(trifluoromethyl)phenyl]1,2,4-oxadiazole]",cell permeability,cell-permeable
